Source: PubChem BioAssay AID504834 (National Center for Advancing Translational Sciences (NCATS), 2011)
Hit rate of the full screen: of about 320,000 compounds, about 22,000 (6.9%) were called active. The inconclusive results got no clear call from the source; some entries with a clear call stand among them for comparison. Calls come from the whole dose curve; as a rule, active = well fitted inhibition curve with a large enough effect; inconclusive = small, poorly fitted or top-dose-only effect, or another doubt; inactive = no such curve, though single readings can be large or run the other way. A potency beside an inconclusive call is a rough fit, not a confirmed value.

experiment: Primary qHTS for delayed death inhibitors of the malarial parasite plastid, 96 hour incubation; conditions: P. falciparum luciferase reporter growth; series mostly up to 28.7 µM; activity change, negative = inhibition: at the top concentration
Method in brief: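 Compounds incubated with erythrocytes infected by luciferase-expressing P. falciparum (2% hematocrit, 0.05% parasitemia final) for 96 hours, 37 C in 5% CO2. Growth inhibition scored as decreased luciferase luminescence.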
% is set by controls: 0 for no effect and ±100 for the full control effect; potency is the fitted concentration of half-maximal effect.

Row | SMILES | Potency | activity change, negative = inhibition
1 | O=C(C1CC(=O)N(c2ccc3c(c2)OCCO3)C1)N1CCN(Cc2ccccc2F)CC1 (stereo not given) | inconclusive: 18.5 µM [inhibitor, single point] | 
2 | CCOc1cc([N+](=O)[O-])cc(/C=N/NC(=O)c2c(-c3ccccc3)noc2C)c1O | active: 13.1 µM | 
3 | CC1CCN(C(c2ccc(N(C)C)cc2)c2nnnn2Cc2ccccc2)CC1 (stereo not given) | inconclusive: 18.5 µM [inhibitor, single point] | 
4 | CCc1[nH]nc2c1C1(CCN(C(=O)OCc3ccccc3)CC1)C(C#N)=C(N)O2 | active: 0.185 µM | 
5 | CN(C)S(=O)(=O)c1ccc(NC(=O)CN2CCCc3ccccc32)cc1 | inconclusive: 4.15 µM [inhibitor, partial curve, poor fit] | 
6 | S=c1nc(-c2ccccc2)n(CCCn2ccnc2)c2c1CCCC2 | inconclusive: 18.5 µM [inhibitor, single point] | 
7 | O=C(c1ccccc1)c1ccc(NCCCn2ccnc2)c([N+](=O)[O-])c1 | active: 11.7 µM | 
8 | O=C(CN(c1ccccn1)S(=O)(=O)c1ccccc1)N/N=C/c1cccc([N+](=O)[O-])c1 |  | inactive: 2.5%
9 | COC(=O)c1cnc(SCC(=O)c2ccccc2)n1C |  | inactive: 346%
10 | Cc1cccc(N(C(=O)c2csnn2)C(C(=O)NC2CCCCC2)c2ccncc2)c1 (stereo not given) |  | inactive: 11.5%
11 | CC(c1ccccc1)n1c(CO)nc2ccccc21 (stereo not given) | inconclusive: 18.5 µM [inhibitor, single point] | 
12 | CCCCn1nc2cc(C(=O)NCCc3cccs3)ccc2c1OCC | inconclusive: 0.0026 µM [inhibitor, full curve, poor fit] | 
13 | O=C(c1nc2ccccn2c1CN1CCCC(O)C1)N1CCN(C2CCCCC2)CC1 (stereo not given) | inconclusive: 5.86 µM [inhibitor, partial curve, poor fit] | 
14 | Cc1ccc(C(=O)O)cc1NC(=S)NC(=O)c1ccc([N+](=O)[O-])c(C)c1 | inconclusive: 18.5 µM [inhibitor, single point] | 
15 | CN1CCN(c2ccc(NC(=O)c3ccc(Cl)cc3)cn2)CC1 | inconclusive: 9.28 µM [inhibitor, partial curve, poor fit] | 
16 | COC(=O)CCCC(=O)N1CCC(CO)(CCc2ccccc2)CC1 | inconclusive: 14.7 µM [inhibitor, single point] | 
17 | CCOc1ccc(C(=O)NCC(=O)OCc2ccc(F)cc2Cl)cc1 |  | inactive: -10.3%
18 | CC1CCCCN1CC(=O)Nc1ccccc1Sc1ccccc1 (stereo not given) | inconclusive: 11.7 µM [inhibitor, single point] | 
19 | Cc1ccc(N=C2SC(C(=O)Nc3ccc(OC(F)(F)F)cc3)C(N)=C2C(=O)Nc2c(C)cc(C)cc2C)cc1 (stereo not given) | active: 11.7 µM | 
20 | Nc1cc(Cl)ccc1C(=O)OCC(=O)NC(=O)NCc1ccccc1 | inconclusive: 0.0928 µM [inhibitor, full curve, poor fit] | 
21 | NNC(=O)c1cc(Br)cs1 |  | inactive: 31.6%
22 | O=C1c2ccccc2C(=O)N1CCCSc1nc2ccccc2o1 |  | inactive: 164%
23 | CC1=NN(c2ccccc2)C(=O)/C1=C/c1ccc[nH]1 |  | inactive: -10.8%
24 | CCOC(=O)N1CCC(n2c(SCC(=O)NCc3ccccc3)nc3ccccc3c2=O)CC1 | inconclusive: 20.8 µM [inhibitor, partial curve, poor fit] | 

Row | SMILES | Potency | activity change, negative = inhibition
25 | COc1ccccc1NC(=S)N(Cc1ccco1)Cc1cc2cc(C)c(C)cc2[nH]c1=O | active: 2.08 µM | 
26 | COc1cc(/C=N/N=C(/C(=O)c2ccccc2)c2ccccc2)cc(OC)c1O | inconclusive: 10.4 µM [inhibitor, single point] | 
27 | O=C(Cn1nc(C(F)F)cc1C1CC1)NCCC1=CCCCC1 | active: 3.29 µM | 
28 | CC(C)(C)OC(=O)NC(CO)c1cn([C@@H](Cc2cc3ccccc3[nH]2)C(=O)N2CCN(C(=O)OC(C)(C)C)CC2)nn1 (stereo not given in full) | inconclusive: 18.5 µM [inhibitor, single point] | 
29 | O=c1cc(CO)oc(C(Nc2ccccn2)c2cccc(F)c2)c1O (stereo not given) |  | inactive: 0.952%
30 | COc1nc2cc(C)ccc2cc1-c1noc(-c2cccnc2)n1 | inconclusive: 18.5 µM [inhibitor, single point] | 
31 | CCOc1nc(NC2CCCC2)nc(N2CCC(C)CC2)n1 | inconclusive: 10.4 µM [inhibitor, single point] | 
32 | CNC(=S)N(Cc1ccco1)Cc1cc2cc3c(cc2[nH]c1=O)OCCO3 |  | inactive: 0%
33 | Cc1ccc(C2(CCNS(=O)(=O)c3ccc(C)cc3)CCOC(C(C)C)C2)cc1 (stereo not given) | inconclusive: 10.4 µM [inhibitor, single point] | 
34 | C=C(C)C1CC=C(C)/C(=N/NC(=O)COc2ccccc2Cl)C1 (stereo not given) | inconclusive: 18.5 µM [inhibitor, single point] | 
35 | CNc1ccc(Br)cc1C(O)c1ccccc1 (stereo not given) | inconclusive: 4.15 µM [inhibitor, partial curve, poor fit] | 
36 | COc1ccc(C(=O)NC2CCN(S(=O)(=O)c3ccc(F)cc3)CC2)cc1 | inconclusive: 8.28 µM [inhibitor, partial curve, poor fit] | 
37 | C=CCN(c1ccc(C(N)=O)cc1)S(C)(=O)=O | inconclusive: 13.1 µM [inhibitor, single point] | 
38 | COc1ccc(NC(=O)c2ccc3c(SCC(=O)O)c4c(nc3c2)CCCC4)cc1Cl | inconclusive: 5.22 µM [inhibitor, partial curve, poor fit] | 
39 | CC(=O)NC(CC(=O)OCC(=O)N1CCN(S(=O)(=O)c2ccc(Cl)cc2)CC1)c1ccccc1 (stereo not given) |  | inactive: -12.2%
40 | CCNc1nc(SCC(=O)Nc2ccccc2)nc(N2CCOCC2)n1 | inconclusive: 4.65 µM [inhibitor, partial curve, poor fit] | 
41 | O=c1c2ccccc2ncn1Cc1ccc(Cl)cc1 | inconclusive: 7.38 µM [inhibitor, partial curve] | 
42 | CCCC(=O)N(c1ccc(OCC)cc1)S(=O)(=O)c1ccc2c3c(cccc13)C(=O)N2C | inconclusive: 2.62 µM [inhibitor, single point] | 
43 | C[C@]12CCC(=O)C[C@H]1CC[C@@H]1[C@@H]2CC[C@]2(C)[C@@H](O)CC[C@@H]12 | inconclusive: 2.62 µM [inhibitor, partial curve, poor fit] | 
44 | CSCC[C@H](NC(=O)N1CCn2c1nc1ccccc12)C(=O)NCc1ccco1 |  | inactive: 20.2%
45 | Cc1ccc(NC(=O)CCCNC(=O)c2ccc(Cl)cc2)cc1S(=O)(=O)N1CCOCC1 |  | inactive: -23.3%
46 | O=C(/C=C/c1cccc([N+](=O)[O-])c1)NCc1ccco1 | inconclusive: 20.8 µM [inhibitor, partial curve, poor fit] | 
47 | CCCNC(=S)N1CCN(CC)CC1 | inconclusive: 11.7 µM [inhibitor, single point] | 
48 | Cc1cccc(NC(=O)CCC2CCN(Cc3nccs3)CC2)c1 | active: 9.28 µM | 

Reprinted: entries 40–44
Row | SMILES | Potency | activity change, negative = inhibition
40 | CCNc1nc(SCC(=O)Nc2ccccc2)nc(N2CCOCC2)n1 | inconclusive: 4.65 µM [inhibitor, partial curve, poor fit] | 
41 | O=c1c2ccccc2ncn1Cc1ccc(Cl)cc1 | inconclusive: 7.38 µM [inhibitor, partial curve] | 
42 | CCCC(=O)N(c1ccc(OCC)cc1)S(=O)(=O)c1ccc2c3c(cccc13)C(=O)N2C | inconclusive: 2.62 µM [inhibitor, single point] | 
43 | C[C@]12CCC(=O)C[C@H]1CC[C@@H]1[C@@H]2CC[C@]2(C)[C@@H](O)CC[C@@H]12 | inconclusive: 2.62 µM [inhibitor, partial curve, poor fit] | 
44 | CSCC[C@H](NC(=O)N1CCn2c1nc1ccccc12)C(=O)NCc1ccco1 |  | inactive: 20.2%

Remaining list, next part

Row | SMILES | Potency | activity change, negative = inhibition
49 | CC(C)n1c(N2CCN(C(=O)Nc3ccc(F)cc3F)CC2)nc2ccccc21 | inconclusive: 0.208 µM [inhibitor, full curve, poor fit] | 
50 | Cc1cccc(Sc2c([N+](=O)[O-])ncn2C)n1 | inconclusive: 18.5 µM [inhibitor, single point] | 
51 | CCCCOC(=O)C(C)Sc1n[nH]c(=O)[nH]c1=O (stereo not given) | inconclusive: 0.0828 µM [inhibitor, full curve, poor fit] | 
52 | OCCC1CN(Cc2cc3c(cc2Cl)OCO3)CCN1Cc1ccccc1 (stereo not given) | active: 10.4 µM | 
53 | CCc1nnc(NCn2nc(C)cc2C)s1 | inconclusive: 3.7 µM [inhibitor, full curve, poor fit] | 
54 | Cc1ccc(-c2c[n+](Cc3ccc(Cl)c(Cl)c3)c3n2CCC3)cc1 | active: 0.185 µM | 
55 | O=C(Nc1nc2ccccc2[nH]1)NC1CCCCC1 |  | inactive: 80.8%
56 | O=c1oc2cc(O)ccc2c2ccccc12 |  | inactive: 2.72%
57 | COc1cc(Nc2ccc(S(=O)(=O)N3CCN(C)CC3)cc2[N+](=O)[O-])cc(OC)c1 | inconclusive: 18.5 µM [inhibitor, single point] | 
58 | CC(C)(C)NC(=O)C12CC3CC(CC(Cl)(C3)C1)C2 | inconclusive: 9.28 µM [inhibitor, single point] | 
59 | COc1ccc(C2C=C(c3ccc(C)cc3)Nc3ncnn32)cc1 (stereo not given) |  | inactive: -4.15% [at 5.75 µM]
60 | CCc1ccc(NC(=O)CCc2nc3ccccc3[nH]2)cc1 |  | inactive: 64.1%
61 | CN(C)c1ccc(N2C(=NC(=O)COc3ccccc3)SC3CS(=O)(=O)CC32)cc1 (stereo not given) | inconclusive: 18.5 µM [inhibitor, single point] | 
62 | CC1(c2ccc3c(c2)OCCCO3)NC(=O)N(CC(=O)NCCc2ccccc2)C1=O (stereo not given) | inconclusive: 18.5 µM [inhibitor, single point] | 
63 | Cn1cncc1C#Cc1c(C=O)n(C)c2ccccc12 | inconclusive: 10.4 µM [inhibitor, single point] | 
64 | CCOC(=O)C1CCN(S(=O)(=O)c2cc(F)ccc2OC)CC1 | inconclusive: 11.7 µM [inhibitor, partial curve] | 
65 | CCC(=O)Nc1nnc(SCC(=O)c2ccc3c(c2)Cc2ccccc2-3)s1 |  | inactive: -3.06%
66 | NC(=O)CN1CCN(S(=O)(=O)c2ccc(Br)cc2)CC1 |  | inactive: -1.24%
67 | O=C(CN1CCN(c2ncc(C(F)(F)F)cc2Cl)CC1)Nc1ccc2c(c1)OCO2 | inconclusive: 13.1 µM [inhibitor, single point] | 
68 | CN1C(C(=O)Nc2ccccn2)=C(O)c2ccccc2S1(=O)=O | inconclusive: 11.7 µM [inhibitor, single point] | 
69 | NS(=O)(=O)c1ccc(NC(=S)NCc2ccccc2Cl)cc1 | inconclusive: 18.5 µM [inhibitor, single point] | 
70 | CCN(CC)C(=O)C(=O)Nc1ccc(F)c(Cl)c1 |  | inactive: -16.4%
